Experimental data published in PMC2775670.
No constants are given. Whether binding was seen depends on the method and setting. In cells and extracts the contact can be indirect. Some results given as binding are weak or reduced against the parent protein; the word gives no strength. For some of these results: Sequences can lack the tags named with a protein.

The chains behind the UniProt entries cited, without tags or fusion partners.
UniProt P09269: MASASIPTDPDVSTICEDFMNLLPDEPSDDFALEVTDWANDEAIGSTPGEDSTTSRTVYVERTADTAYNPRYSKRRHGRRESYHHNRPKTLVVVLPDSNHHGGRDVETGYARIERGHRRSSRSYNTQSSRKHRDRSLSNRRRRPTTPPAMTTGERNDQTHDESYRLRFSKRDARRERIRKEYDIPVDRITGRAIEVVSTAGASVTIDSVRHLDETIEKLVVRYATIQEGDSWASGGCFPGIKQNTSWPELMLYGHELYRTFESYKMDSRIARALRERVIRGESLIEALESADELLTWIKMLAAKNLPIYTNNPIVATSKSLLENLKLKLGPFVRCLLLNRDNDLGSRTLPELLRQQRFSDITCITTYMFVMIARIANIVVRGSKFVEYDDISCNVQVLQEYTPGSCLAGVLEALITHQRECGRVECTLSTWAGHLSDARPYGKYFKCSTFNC
UniProt Q96SB4: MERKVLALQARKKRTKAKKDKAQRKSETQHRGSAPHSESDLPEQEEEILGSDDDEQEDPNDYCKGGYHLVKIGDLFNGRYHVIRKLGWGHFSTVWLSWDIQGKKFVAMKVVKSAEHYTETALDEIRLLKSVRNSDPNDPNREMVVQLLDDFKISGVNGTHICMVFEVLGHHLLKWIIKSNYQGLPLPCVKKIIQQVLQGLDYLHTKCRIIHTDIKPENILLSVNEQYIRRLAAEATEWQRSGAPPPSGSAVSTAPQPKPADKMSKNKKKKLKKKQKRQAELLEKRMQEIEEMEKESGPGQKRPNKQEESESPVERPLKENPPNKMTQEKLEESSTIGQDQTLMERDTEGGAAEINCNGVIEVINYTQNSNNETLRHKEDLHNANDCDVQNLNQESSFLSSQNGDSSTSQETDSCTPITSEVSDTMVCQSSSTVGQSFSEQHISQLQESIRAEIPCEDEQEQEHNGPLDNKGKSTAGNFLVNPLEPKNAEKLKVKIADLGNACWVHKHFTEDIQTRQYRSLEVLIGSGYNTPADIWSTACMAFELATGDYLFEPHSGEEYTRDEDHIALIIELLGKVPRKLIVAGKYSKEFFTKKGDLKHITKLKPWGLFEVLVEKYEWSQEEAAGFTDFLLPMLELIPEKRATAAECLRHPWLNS
UniProt Q07955: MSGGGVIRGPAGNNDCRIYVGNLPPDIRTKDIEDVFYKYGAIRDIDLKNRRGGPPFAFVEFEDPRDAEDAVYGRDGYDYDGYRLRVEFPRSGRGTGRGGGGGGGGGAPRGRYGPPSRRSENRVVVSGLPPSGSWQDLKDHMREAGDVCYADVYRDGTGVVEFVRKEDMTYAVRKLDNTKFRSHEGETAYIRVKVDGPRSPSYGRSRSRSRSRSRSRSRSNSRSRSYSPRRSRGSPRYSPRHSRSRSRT

What was measured:
[1] = biological target: IE4 protein of VZV-infected MeWo cells (Varicella-Zoster virus (NIK strain)) (UniProt P09269); experiment: co-IP; total extracts of pFlag-SRPK1-transfected, VZV-infected MeWo cells; anti-IE4 or anti-Flag on protein A-agarose, overnight at 4°C in immunoprecipitation buffer
[2] = biological target: IE4-V5 (pcDNA3.1/V5-His-TOPO-IE4) expressed in HeLa cells (Varicella-Zoster virus) (UniProt P09269); experiment: co-IP
[3] = biological target: Flag-SRPK1 (pFlag-SRPK1) (UniProt Q96SB4); experiment: co-IP; total extracts of pFlag-SRPK1-transfected, VZV-infected MeWo cells; anti-IE4 or anti-Flag on protein A-agarose, overnight at 4°C in immunoprecipitation buffer
[4] = biological target: HA-ASF/SF2 (pCMV-HA-ASF/SF2) (human) (UniProt Q07955); experiment: co-IP
[5] = biological target: T1, HA-SRp20 (pCMV-HA-SRp20) (human) (UniProt P84103); experiment: co-IP
T1 sequence: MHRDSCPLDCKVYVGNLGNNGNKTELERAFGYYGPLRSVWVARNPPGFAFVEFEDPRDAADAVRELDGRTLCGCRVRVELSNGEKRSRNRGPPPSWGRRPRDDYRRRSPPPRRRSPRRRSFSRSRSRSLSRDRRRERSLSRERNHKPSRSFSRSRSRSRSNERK

[6] = biological target: T2, HA-9G8 (pCMV-HA-9G8) (human) (UniProt Q16629); experiment: co-IP
T2 sequence: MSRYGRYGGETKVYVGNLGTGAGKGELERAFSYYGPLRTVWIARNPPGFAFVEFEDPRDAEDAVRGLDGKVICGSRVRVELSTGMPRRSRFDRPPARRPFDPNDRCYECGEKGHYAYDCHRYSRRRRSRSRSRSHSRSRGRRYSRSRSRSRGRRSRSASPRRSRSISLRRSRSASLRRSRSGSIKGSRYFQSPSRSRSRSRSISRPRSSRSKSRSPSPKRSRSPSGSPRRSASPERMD

[7] = biological target: T3, GST-9G8 (human) (UniProt Q16629); experiment: pull-down; data not shown; GST fusion protein on Sepharose beads incubated with 35S-labelled in vitro-translated protein, as for the shown radioactive binding assays; only the target purified
T3 sequence: T2 sequence

[8] = biological target: T4, GST-SRp20 (human) (UniProt P84103); experiment: as above
T4 sequence: T1 sequence

[9] = biological target: GST-ASF/SF2 (human) (UniProt Q07955); experiment: pull-down; GST fusion protein on Sepharose beads incubated with 35S-labelled in vitro-translated protein (reticulocyte lysate); 10 mM Tris-HCl pH 8, 150 mM NaCl, 0.1% NP-40, 1 mM PMSF, overnight at 4°C; autoradiography; only the target purified

Substance: Flag-SRPK1 (pFlag-SRPK1) (from UniProt Q96SB4 1-655) (enzyme)
- binding [1]: binds

Substance: HA-ASF/SF2 (pCMV-HA-ASF/SF2) (from UniProt Q07955 1-248)
- binding [2]: binds

Substance: IE4 protein of VZV-infected MeWo cells (from UniProt P09269 1-452)
- binding [3]: binds

Substance: IE4-V5 (pcDNA3.1/V5-His-TOPO-IE4) expressed in HeLa cells (from UniProt P09269 1-452)
- binding [4]: binds
- binding [5]: binds
- binding [6]: binds

Substance: IE4-V5, in vitro translated (from UniProt P09269 1-452)
- binding [7]: binds
- binding [8]: binds
- binding [9]: binds

Substance: endogenous ASF/SF2 of HeLa cells (from UniProt Q07955 1-248)
- binding [2]: binds
